Reference: paper PMC4063743

Each substance was assayed against T1, GST-Vvl fusion protein (Tribolium Ventral veins lacking/Drifter) (Tribolium castaneum) (UniProt C0KZ11) (assay: pull-down; GST-Vvl held on Glutathione Sepharose 4B, incubated with Flag-Met, Flag-EcRA, Flag-EcRB and/or Flag-Usp for 2 hours at 4°C; Flag-tagged protein detected by anti-Flag M2 blot; only the target purified).
T1 sequence: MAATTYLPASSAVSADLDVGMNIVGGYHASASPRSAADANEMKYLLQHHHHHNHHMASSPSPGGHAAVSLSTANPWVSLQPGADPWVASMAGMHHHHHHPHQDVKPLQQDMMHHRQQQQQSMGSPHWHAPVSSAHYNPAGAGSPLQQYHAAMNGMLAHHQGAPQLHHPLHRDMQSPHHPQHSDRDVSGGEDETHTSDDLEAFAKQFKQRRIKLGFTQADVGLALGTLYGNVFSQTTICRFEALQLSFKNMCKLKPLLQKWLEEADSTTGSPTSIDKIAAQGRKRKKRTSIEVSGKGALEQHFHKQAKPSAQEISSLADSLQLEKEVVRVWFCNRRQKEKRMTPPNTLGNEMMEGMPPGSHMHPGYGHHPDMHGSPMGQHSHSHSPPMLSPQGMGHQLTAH

| binding | Substance |
| --- | --- |
| binds | Flag-EcRB fusion protein (Tribolium Ecdysone receptor isoform B) |
| binds | Flag-EcRA fusion protein (Tribolium Ecdysone receptor isoform A) |
| no binding | Flag-Met fusion protein (Tribolium Methoprene-tolerant) |

No constants are given. Whether binding was seen depends on the method and setting. Binding seen in cells or lysates may run through a third protein. Binding calls can cover weak binding; strength is not graded here. Where a sequence is shown, tags or fusion partners need not be part of it.
